Sequences of proteins named here, by UniProt entry; tags and fusion partners are left off. A change or cut given only in a name is not applied to a line headed by its entry.
UniProt Q6N075: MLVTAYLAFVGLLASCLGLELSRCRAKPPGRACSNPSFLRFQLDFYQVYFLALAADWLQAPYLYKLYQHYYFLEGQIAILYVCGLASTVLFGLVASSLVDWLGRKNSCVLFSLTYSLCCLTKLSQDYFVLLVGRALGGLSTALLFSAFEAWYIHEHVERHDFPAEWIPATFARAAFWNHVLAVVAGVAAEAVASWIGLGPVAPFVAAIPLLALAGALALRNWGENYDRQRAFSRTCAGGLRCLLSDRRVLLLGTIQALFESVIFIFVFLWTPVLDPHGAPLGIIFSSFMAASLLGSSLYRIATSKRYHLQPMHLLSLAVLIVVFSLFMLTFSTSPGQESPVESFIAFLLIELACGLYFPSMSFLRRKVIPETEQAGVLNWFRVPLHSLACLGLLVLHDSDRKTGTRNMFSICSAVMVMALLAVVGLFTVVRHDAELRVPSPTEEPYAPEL
UniProt Q02078: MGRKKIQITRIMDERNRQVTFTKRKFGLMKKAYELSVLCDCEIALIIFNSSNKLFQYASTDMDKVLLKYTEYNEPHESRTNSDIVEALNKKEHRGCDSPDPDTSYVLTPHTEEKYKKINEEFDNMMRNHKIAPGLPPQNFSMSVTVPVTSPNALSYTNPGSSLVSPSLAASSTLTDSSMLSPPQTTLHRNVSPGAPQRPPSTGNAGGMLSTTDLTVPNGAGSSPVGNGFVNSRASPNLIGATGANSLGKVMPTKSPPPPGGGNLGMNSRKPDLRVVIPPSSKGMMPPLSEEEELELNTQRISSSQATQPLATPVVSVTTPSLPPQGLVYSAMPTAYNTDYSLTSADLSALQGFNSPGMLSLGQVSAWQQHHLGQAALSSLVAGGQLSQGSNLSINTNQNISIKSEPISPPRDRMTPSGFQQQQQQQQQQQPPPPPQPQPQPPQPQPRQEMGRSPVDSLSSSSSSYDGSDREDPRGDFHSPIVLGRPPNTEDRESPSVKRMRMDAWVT
UniProt Q9BTT4: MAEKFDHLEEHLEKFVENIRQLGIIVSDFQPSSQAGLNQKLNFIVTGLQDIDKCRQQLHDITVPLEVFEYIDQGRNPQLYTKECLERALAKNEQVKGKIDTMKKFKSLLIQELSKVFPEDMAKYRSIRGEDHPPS
UniProt Q15648, whole entry, looked up: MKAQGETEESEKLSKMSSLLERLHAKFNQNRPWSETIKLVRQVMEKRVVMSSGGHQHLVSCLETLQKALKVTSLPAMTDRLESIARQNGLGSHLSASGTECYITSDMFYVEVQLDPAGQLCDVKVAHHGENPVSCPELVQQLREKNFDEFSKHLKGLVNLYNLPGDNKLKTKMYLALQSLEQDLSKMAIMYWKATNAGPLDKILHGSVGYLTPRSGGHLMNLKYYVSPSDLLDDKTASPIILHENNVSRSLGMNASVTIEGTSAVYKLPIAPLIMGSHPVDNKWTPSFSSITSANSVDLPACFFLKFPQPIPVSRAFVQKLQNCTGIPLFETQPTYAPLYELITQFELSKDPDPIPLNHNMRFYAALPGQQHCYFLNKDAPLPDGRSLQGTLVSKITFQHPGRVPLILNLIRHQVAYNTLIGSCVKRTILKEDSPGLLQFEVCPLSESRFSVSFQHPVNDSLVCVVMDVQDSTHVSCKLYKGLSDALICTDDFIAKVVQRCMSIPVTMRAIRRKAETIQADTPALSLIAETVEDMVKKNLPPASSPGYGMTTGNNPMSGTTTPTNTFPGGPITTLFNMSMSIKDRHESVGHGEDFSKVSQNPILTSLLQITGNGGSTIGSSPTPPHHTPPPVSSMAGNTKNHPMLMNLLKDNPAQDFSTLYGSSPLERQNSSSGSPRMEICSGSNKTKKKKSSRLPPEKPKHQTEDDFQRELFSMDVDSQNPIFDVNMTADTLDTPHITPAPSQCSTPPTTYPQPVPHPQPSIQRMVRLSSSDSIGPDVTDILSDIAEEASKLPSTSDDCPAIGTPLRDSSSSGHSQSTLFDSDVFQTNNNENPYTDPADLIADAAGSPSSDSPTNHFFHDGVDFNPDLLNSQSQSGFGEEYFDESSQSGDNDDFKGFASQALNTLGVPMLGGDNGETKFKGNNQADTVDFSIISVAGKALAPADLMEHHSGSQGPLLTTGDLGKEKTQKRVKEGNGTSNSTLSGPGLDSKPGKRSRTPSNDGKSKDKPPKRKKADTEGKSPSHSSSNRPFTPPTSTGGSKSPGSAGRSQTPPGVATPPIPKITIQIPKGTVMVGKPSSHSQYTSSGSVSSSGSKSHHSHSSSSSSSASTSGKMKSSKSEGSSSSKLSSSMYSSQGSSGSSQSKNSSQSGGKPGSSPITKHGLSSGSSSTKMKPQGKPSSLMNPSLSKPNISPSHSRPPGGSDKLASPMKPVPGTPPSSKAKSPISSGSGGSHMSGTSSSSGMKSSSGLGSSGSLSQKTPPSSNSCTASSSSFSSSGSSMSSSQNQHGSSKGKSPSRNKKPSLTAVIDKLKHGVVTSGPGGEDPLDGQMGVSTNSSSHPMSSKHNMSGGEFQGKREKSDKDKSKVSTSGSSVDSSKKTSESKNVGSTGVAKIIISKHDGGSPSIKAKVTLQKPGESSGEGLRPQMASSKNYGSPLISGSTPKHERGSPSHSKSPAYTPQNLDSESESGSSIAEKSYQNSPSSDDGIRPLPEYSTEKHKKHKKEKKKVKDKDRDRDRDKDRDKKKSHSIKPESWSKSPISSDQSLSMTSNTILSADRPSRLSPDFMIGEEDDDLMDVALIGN
UniProt Q14566: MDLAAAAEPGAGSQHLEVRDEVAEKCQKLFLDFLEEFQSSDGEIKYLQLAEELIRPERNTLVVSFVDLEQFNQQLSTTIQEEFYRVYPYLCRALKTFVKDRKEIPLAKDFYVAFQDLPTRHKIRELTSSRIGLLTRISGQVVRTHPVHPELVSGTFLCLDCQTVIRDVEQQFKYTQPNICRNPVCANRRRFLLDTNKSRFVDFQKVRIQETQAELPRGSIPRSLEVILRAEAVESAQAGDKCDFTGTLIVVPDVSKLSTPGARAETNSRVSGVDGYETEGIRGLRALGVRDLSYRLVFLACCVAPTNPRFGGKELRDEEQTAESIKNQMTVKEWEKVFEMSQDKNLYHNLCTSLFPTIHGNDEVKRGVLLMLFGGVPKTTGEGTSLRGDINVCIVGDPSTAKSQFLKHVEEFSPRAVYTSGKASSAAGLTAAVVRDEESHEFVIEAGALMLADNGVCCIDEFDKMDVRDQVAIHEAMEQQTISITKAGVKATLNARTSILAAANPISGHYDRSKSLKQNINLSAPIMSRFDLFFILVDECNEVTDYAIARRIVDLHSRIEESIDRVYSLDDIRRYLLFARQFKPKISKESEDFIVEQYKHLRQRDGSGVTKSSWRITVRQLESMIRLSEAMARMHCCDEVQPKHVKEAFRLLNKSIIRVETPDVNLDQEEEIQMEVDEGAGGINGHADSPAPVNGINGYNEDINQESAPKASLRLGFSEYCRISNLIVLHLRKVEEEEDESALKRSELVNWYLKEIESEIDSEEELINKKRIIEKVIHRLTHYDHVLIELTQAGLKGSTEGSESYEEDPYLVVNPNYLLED
UniProt Q9HCC0: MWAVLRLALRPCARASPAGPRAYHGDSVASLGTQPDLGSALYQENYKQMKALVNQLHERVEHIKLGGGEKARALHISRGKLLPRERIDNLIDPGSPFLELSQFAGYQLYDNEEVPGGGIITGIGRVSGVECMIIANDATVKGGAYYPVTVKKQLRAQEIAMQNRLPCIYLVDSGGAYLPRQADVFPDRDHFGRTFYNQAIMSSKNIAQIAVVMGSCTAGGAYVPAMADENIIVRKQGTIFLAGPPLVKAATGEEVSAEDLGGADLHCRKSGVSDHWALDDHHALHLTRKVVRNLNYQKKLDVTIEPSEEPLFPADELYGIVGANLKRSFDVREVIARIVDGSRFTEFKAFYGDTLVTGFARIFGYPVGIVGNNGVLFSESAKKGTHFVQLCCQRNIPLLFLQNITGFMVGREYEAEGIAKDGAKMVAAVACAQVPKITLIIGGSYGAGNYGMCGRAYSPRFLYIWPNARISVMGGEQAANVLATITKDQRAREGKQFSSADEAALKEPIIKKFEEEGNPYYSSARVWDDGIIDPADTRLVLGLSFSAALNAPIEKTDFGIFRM
UniProt Q8NI22: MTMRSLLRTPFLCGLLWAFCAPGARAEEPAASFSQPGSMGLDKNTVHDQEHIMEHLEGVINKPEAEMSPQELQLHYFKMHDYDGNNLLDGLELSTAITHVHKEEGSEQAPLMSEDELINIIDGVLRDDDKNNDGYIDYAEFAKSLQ
UniProt Q12866: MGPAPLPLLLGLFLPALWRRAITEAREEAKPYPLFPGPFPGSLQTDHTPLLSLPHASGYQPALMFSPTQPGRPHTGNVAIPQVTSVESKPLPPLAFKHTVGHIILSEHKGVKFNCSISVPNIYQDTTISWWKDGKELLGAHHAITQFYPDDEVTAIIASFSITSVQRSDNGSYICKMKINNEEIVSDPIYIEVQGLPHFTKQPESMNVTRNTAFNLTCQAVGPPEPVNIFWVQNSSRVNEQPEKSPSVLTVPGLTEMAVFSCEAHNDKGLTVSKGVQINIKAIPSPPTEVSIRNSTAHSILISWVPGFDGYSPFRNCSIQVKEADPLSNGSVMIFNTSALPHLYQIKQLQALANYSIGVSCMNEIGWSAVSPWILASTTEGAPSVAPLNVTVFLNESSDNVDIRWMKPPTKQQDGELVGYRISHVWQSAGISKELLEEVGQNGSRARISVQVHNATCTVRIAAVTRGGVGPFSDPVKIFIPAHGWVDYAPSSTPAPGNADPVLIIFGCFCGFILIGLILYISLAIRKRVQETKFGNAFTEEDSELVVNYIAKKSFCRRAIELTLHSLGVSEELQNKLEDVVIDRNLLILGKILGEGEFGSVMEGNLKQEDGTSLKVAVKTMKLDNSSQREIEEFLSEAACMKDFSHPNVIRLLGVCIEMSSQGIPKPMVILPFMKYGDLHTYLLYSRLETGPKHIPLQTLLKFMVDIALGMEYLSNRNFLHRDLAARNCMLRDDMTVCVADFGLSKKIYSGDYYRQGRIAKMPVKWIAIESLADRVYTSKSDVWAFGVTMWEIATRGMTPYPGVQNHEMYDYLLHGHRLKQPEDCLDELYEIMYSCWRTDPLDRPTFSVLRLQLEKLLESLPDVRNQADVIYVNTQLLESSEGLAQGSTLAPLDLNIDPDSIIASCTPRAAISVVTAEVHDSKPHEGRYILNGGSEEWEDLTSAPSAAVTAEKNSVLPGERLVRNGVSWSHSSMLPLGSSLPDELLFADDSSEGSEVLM
UniProt Q8NHS3: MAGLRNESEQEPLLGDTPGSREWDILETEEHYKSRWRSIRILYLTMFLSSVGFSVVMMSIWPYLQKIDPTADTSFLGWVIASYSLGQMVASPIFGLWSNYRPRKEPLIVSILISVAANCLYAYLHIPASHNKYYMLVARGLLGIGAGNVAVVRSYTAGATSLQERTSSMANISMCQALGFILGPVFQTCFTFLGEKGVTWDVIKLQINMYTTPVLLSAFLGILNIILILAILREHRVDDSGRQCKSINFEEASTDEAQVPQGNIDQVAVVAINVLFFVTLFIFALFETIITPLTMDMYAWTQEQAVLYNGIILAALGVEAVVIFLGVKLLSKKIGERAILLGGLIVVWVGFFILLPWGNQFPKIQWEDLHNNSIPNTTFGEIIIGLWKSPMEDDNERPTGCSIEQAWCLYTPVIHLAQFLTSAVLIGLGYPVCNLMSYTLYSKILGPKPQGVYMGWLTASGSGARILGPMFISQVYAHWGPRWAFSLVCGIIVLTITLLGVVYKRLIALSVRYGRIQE
UniProt P40926: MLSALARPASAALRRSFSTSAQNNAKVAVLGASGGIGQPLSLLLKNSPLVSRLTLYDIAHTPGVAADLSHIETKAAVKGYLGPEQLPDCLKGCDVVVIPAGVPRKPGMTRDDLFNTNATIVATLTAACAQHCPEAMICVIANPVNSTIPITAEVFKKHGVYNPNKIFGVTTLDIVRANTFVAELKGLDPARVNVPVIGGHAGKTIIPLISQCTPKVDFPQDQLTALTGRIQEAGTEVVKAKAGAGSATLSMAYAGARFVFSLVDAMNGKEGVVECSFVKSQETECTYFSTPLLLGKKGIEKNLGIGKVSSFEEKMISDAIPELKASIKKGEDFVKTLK
UniProt Q96EZ8, whole entry, looked up: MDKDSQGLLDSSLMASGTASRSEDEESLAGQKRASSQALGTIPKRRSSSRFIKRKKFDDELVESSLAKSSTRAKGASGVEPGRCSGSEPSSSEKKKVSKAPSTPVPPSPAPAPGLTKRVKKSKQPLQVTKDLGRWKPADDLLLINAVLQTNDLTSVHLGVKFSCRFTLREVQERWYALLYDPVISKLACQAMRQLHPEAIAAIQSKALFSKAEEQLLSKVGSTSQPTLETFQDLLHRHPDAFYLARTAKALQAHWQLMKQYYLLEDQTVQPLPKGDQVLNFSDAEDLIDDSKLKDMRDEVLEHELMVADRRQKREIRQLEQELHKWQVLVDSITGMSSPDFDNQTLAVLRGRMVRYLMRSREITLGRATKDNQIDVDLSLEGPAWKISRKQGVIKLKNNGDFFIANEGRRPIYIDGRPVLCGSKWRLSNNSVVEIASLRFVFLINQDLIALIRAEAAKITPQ

The list shows a part of the results.
The targets below were run with C1=CC=C(C=C1)[C@H](COC2=CC3=C(C=C2)NC(=O)N3)NC(=O)C4=CC=CN(C4=O)CC5=CC(=C(C=C5)F)F (assay: log2 fold change, soluble protein after heating vs DMSO (PISA); higher = thermal stabilisation; K562 lysate, 10 uM; active = over 0.2 and 3.5 SD of the protein, either way, in both replicates (recomputed)).
Procedure, shortened: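 Thermal stability, expressed as log-two fold change relative to solvent controls, is given from duplicates. Crude K562 extract in PBS pH 7.4 with 1 mM MgCl2, at 1 mg/mL protein, was treated with 10 μM compound for 30 min and heated in aliquots for 3 min across 48°C-58°C. After pooling, adjustment to 0.5% NP-40 at 4°C and centrifugation at 21,000xg for 90 min, supernatant protein was measured by TMTpro 16plex LC-MS/MS with channel sums equalised.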
In the case of MBOAT2 (UniProt Q6ZWT7), the log2 fold change is reported as inactive: -0.011.
In the case of MCUR1 (UniProt Q96AQ8), the log2 fold change is reported as inactive: 0.002.
MED27 (UniProt Q6P2C8) was tested, and the log2 fold change was inactive: 0.036.
With MFSD5 isoform 2 (UniProt Q6N075) the log2 fold change was inactive: 0.016.
With MED12 isoform 2 (UniProt Q93074) the log2 fold change was inactive: 0.013.
With MEF2A isoform 2 (UniProt Q02078) the log2 fold change was inactive: 0.09.
With MED26 (UniProt O95402) the log2 fold change was inactive: -0.059.
MED10 (UniProt Q9BTT4) was tested, and the log2 fold change was inactive: 0.038.
With MED1 (UniProt Q15648) the log2 fold change was inactive: 0.002.
For MCM6 (UniProt Q14566), the log2 fold change was inactive: -0.016.
In the case of MCCC2 (UniProt Q9HCC0), the log2 fold change is reported as inactive: 0.05.
With MED19 (UniProt A0JLT2) the log2 fold change was inactive: -0.103.
With MELTF (UniProt P08582) the log2 fold change was inactive: -0.091.
MDC1 (UniProt Q14676) was tested, and the log2 fold change was inactive: 0.01.
MEA1 (UniProt Q16626) was tested, and the log2 fold change was inactive: 0.064.
With METAP1 (UniProt P53582) the log2 fold change was inactive: -0.017.
For MCFD2 (UniProt Q8NI22), the log2 fold change was inactive: -0.079.
MEAK7 (UniProt Q6P9B6) was tested, and the log2 fold change was inactive: -0.021.
MERTK (UniProt Q12866) was tested, and the log2 fold change was inactive: 0.014.
In the case of MFSD8 (UniProt Q8NHS3), the log2 fold change is reported as inactive: 0.015.
In the case of MDM2 isoform 11 (UniProt Q00987), the log2 fold change is reported as inactive: 0.109.
With METTL5 (UniProt Q9NRN9) the log2 fold change was inactive: 0.04.
With MEF2C isoform 5 (UniProt Q06413) the log2 fold change was inactive: 0.016.
MBLAC2 (UniProt Q68D91) was tested, and the log2 fold change was inactive: -0.011.
METAP1D (UniProt Q6UB28) was tested, and the log2 fold change was inactive: 0.036.
For MED13 (UniProt Q9UHV7), the log2 fold change was inactive: -0.021.
In the case of MATR3 (UniProt P43243), the log2 fold change is reported as inactive: 0.07.
MCAM (UniProt P43121) was tested, and the log2 fold change was inactive: -0.01.
MAT2B (UniProt Q9NZL9) was tested, and the log2 fold change was inactive: -0.008.
MED6 (UniProt O75586) was tested, and the log2 fold change was inactive: 0.03.
For MEPCE (UniProt Q7L2J0), the log2 fold change was inactive: 0.027.
With MFN2 (UniProt O95140) the log2 fold change was inactive: -0.001.
MED13L (UniProt Q71F56) was tested, and the log2 fold change was inactive: -0.034.
With MAU2 (UniProt Q9Y6X3) the log2 fold change was inactive: 0.083.
MDH2 (UniProt P40926) was tested, and the log2 fold change was inactive: 0.014.
In the case of METTL18 (UniProt O95568), the log2 fold change is reported as inactive: 0.005.
MCRS1 isoform 2 (UniProt Q96EZ8) was tested, and the log2 fold change was inactive: 0.051.
With MEX3B (UniProt Q6ZN04) the log2 fold change was inactive: 0.015.
